Results reported in paper PMC4741485.
These are yes or no findings as the source states them, for the method shown. Binding seen in cells or lysates may run through a third protein. Some entries that bind do so weakly or less than the wild type. For some of these results: Tags and fused reporters may be left off the sequences shown. Each block holds one binder with its values, some of them ahead of it.

Amino acid sequences for entries named in this document (tags omitted).
UniProt Q00987: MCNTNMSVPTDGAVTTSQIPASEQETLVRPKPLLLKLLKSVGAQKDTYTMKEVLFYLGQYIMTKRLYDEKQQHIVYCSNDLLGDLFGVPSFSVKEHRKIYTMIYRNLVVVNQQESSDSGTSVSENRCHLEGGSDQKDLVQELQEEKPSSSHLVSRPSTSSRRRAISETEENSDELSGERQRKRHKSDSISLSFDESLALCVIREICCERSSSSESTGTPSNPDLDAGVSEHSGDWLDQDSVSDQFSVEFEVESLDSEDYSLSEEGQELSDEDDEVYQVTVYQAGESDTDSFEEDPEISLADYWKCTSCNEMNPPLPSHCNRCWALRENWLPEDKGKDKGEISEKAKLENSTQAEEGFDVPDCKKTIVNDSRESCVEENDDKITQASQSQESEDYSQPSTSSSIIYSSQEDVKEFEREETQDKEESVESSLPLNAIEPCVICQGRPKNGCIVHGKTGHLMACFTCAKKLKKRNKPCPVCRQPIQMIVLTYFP

Assays:
[1] = biological target: Mdm2, endogenous (human (endogenous in U2OS)) (UniProt Q00987); test: co-IP; endogenous proteins in U2OS lysate; precipitated with anti-USP7, anti-Mdm2, anti-p53 or control IgG (overnight 4 °C, protein G magnetic beads); WB; in Figure 5C with control or STIP shRNA and 20 uM MG132 for 4 h
[2] = biological target: USP7 (ubiquitin-specific protease 7), endogenous (human (endogenous in U2OS and H1299)) (UniProt Q93009); test: as above
[3] = biological target: p53, endogenous (human (endogenous in U2OS)) (UniProt P04637); test: as above
GFP-USP7 full-length = GFP-USP7 full-length (UniProt Q93009); test: co-IP; lysates of U2OS cells transfected with GFP-USP7 constructs were incubated with GST or GST-STIP, then immunoprecipitated with anti-GFP antibody; blotted with anti-STIP, re-probed with anti-GFP; only the binder purified

binding [1]: binds
binding [2]: binds
binding [3]: binds
B1: STIP (sip1/tuftelin interacting protein), endogenous (protein, UniProt Q9UBB9 1-837)
chain: MSLSHLYRDGEGRIDDDDDERENFEITDWDLQNEFNPNRQRHWQTKEEATYGVWAERDSDDERPSFGGKRARDYSAPVNFISAGLKKGAAEEAELEDSDDEEKPVKQDDFPKDFGPRKLKTGGNFKPSQKGFAGGTKSFMDFGSWERHTKGIGQKLLQKMGYVPGRGLGKNAQGIINPIEAKQRKGKGAVGAYGSERTTQSMQDFPVVDSEEEAEEEFQKELSQWRKDPSGSKKKPKYSYKTVEELKAKGRISKKLTAPQKELSQVKVIDMTGREQKVYYSYSQISHKHNVPDDGLPLQSQQLPQSGKEAKAPGFALPELEHNLQLLIDLTEQEIIQNDRQLQYERDMVVNLFHELEKMTEVLDHEERVISNLSKVLEMVEECERRMQPDCSNPLTLDECARIFETLQDKYYEEYRMSDRVDLAVAIVYPLMKEYFKEWDPLKDCTYGTEIISKWKSLLENDQLLSHGGQDLSADAFHRLIWEVWMPFVRNIVTQWQPRNCDPMVDFLDSWVHIIPVWILDNILDQLIFPKLQKEVENWNPLTDTVPIHSWIHPWLPLMQARLEPLYSPIRSKLSSALQKWHPSDSSAKLILQPWKDVFTPGSWEAFMVKNIVPKLGMCLGELVINPHQQHMDAFYWVIDWEGMISVSSLVGLLEKHFFPKWLQVLCSWLSNSPNYEEITKWYLGWKSMFSDQVLAHPSVKDKFNEALDIMNRAVSSNVGAYMQPGARENIAYLTHTERRKDFQYEAMQERREAENMAQRGIGVAASSVPMNFKDLIETKAEEHNIVFMPVIGKRHEGKQLYTFGRIVIYIDRGVVFVQGEKTWVPTSLQSLIDMAK

binding (GFP-USP7 full-length): binds
B2: GST-STIP (protein, UniProt Q9UBB9 1-837)
chain: B1 chain
